{
  "source": "patent US20230374068A1",
  "about": "“COMPOSITIONS AND METHODS FOR TREATING A DISEASE” (RAMOT AT TEL AVIV UNIVERSITY LTD., priority 2021, published 2023)",
  "binders": {"B1": {"name": "GFP-RILP (mouse RILP in pEGFP-C1) (other, UniProt Q5ND29 1-369, looked up)", "chain": "MEPRRAAPRLPSQASSSVGAGSAAELVYHLAGALGTELQGLARRFGPDAAAGLVPLVVRALELLEKAAVGPAPDSLQVSAQQAEVELRRLREENQRLRQELGSGPQEERALLRQLKEVTDRQRDELRAHNRDLQRRSQETEALQEQLQRLLLINSELRHKLAAVQTQLRAAQDRERERQIAQDGSSQLAKEQSLEPDAATSDDPVDTQKQPGNLPEAVQCGFSREELKQILQERNELKANVFLLKEELAYFQRELLTDHRVPGLLLEAMKVAVKKQRRKIKAKMLGTPEEAESSEDEDGSWLLLSNDKEDVPLVPESRIQNFFGLWYRGETEAPEAETSNPASSSLQKGEETPQQPHLQPVNSPPAPNS", "notes": "Expressed in transfected RBL cells; tested in cell lysate; also called GFP-fused RILP; pEGFP-C1-RILP; not shown: EGFP of the pEGFP-C1 vector"}},
  "key": {"[1]": {"biological_target": "T1, T7-RILP (pEF-T7-RILP) (mouse) (UniProt Q5ND29)", "T1 sequence (looked up)": "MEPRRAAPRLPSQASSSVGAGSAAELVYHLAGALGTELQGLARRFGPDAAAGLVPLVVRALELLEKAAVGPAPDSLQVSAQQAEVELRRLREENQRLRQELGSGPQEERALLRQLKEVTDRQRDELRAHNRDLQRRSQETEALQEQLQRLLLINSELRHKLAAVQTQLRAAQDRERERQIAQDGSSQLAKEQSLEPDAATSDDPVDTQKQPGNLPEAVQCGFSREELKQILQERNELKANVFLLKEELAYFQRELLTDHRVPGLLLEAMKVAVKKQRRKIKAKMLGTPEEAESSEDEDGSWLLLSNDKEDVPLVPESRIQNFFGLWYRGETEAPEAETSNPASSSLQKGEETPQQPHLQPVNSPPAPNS", "experiment": "co-immunoprecipitation of GFP- and T7-tagged forms from RBL cell lysates"}, "[2]": {"biological_target": "T1, T7-RILP (pEF-T7-RILP) (mouse)", "experiment": "co-immunoprecipitation from co-transfected RBL cell lysates, IP anti-GFP, blot anti-T7"}, "[3]": {"biological_target": "T1, T7-RILP (pEF-T7-RILP) (mouse)", "experiment": "GST pulldown with GTPgammaS, anti-T7 immunoblot; wild type as the reference"}, "[4]": {"biological_target": "T2, T7-RILP-L2 (pEF-T7-RILP-L2) (mouse) (UniProt Q99LE1)", "T2 sequence (looked up)": "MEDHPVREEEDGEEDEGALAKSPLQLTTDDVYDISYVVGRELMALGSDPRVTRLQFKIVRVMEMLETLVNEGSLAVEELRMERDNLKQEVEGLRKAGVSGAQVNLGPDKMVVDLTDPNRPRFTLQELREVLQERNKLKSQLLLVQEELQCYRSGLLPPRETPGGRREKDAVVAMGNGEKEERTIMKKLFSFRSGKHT", "experiment": "GST pulldown with GTPgammaS, anti-T7 immunoblot; wild type as the reference"}, "[5]": {"biological_target": "T3, T7-RILP-L1 (pEF-T7-RILP-L1) (mouse, UniProt Q9JJC6 1-406)", "T3 construct": "The pEF-T7 plasmid was 'prepared as previously described'; also called T7-tagged RILP-L1; RILP-like 1", "T3 sequence (looked up)": "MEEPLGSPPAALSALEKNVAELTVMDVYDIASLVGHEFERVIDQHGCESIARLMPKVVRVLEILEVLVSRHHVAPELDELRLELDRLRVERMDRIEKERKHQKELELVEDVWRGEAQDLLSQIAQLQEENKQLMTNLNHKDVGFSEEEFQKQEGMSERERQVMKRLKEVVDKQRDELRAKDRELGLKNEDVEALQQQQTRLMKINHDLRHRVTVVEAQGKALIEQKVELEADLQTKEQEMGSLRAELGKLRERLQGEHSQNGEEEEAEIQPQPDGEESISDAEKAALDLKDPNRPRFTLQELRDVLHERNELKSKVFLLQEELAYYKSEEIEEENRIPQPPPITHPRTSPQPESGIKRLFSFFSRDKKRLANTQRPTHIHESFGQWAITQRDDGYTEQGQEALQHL", "experiment": "GST pulldown with GTPgammaS, anti-T7 immunoblot; wild type as the reference"}, "[6]": {"biological_target": "T4, GST-Rab12 (pGEX-4T-3-Rab12) (mouse) (UniProt P35283)", "T4 sequence (looked up)": "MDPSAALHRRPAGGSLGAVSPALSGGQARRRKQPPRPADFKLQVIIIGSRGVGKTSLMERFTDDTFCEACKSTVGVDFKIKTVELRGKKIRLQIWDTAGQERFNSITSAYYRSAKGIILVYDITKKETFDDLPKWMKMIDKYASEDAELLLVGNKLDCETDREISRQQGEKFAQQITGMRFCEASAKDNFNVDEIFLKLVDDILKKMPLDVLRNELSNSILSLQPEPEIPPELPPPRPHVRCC", "experiment": "GST-Rab12 pulldown with GTPgammaS, anti-T7 immunoblot; wild type as the reference"}, "[7]": {"biological_target": "B1", "experiment": "reciprocal co-immunoprecipitation, IP anti-T7, blot anti-GFP"}, "[8]": {"biological_target": "T4, GST-Rab12 (pGEX-4T-3-Rab12) (mouse)", "experiment": "GST-Rab12 pulldown, as recalled in Example 5"}, "[9]": {"biological_target": "T4, GST-Rab12 (pGEX-4T-3-Rab12) (mouse)", "experiment": "GST-Rab12 pulldown with GTPgammaS, anti-T7 immunoblot"}},
  "note": "These are yes or no findings as the source states them, for the method shown. Binding seen in cells or lysates may run through a third protein. Some binding calls cover weakened binding; strength is not graded here. Tags and fused reporters may be left off the sequences shown.",
  "data": [
    {"binder": "B1", "values": [
      {"measurement": "binding", "setting": "[1]", "result": "binds"},
      {"measurement": "binding", "setting": "[2]", "result": "binds"}
    ]},
    {"binder": "GST-Rab12 (pGEX-4T-3-Rab12) (other, mouse, UniProt P35283 49-291, looked up, Immobilized on glutathione agarose beads; pulldown in the presence of 0.5 mM GTPgammaS; also called immobilized Rab12; not shown: glutathione S-transferase (GST) encoded by the pGEX-4T-3 vector) MDPSAALHRRPAGGSLGAVSPALSGGQARRRKQPPRPADFKLQVIIIGSRGVGKTSLMERFTDDTFCEACKSTVGVDFKIKTVELRGKKIRLQIWDTAGQERFNSITSAYYRSAKGIILVYDITKKETFDDLPKWMKMIDKYASEDAELLLVGNKLDCETDREISRQQGEKFAQQITGMRFCEASAKDNFNVDEIFLKLVDDILKKMPLDVLRNELSNSILSLQPEPEIPPELPPPRPHVRCC", "values": [
      {"measurement": "binding", "setting": "[3]", "result": "binds"},
      {"measurement": "binding", "setting": "[4]", "result": "binds"},
      {"measurement": "binding", "setting": "[5]", "result": "binds"}
    ]},
    {"binder": "T7-RILP (pEF-T7-RILP) (protein, mouse, UniProt Q5ND29 1-369, looked up, not shown: small tags and cut ends) MEPRRAAPRLPSQASSSVGAGSAAELVYHLAGALGTELQGLARRFGPDAAAGLVPLVVRALELLEKAAVGPAPDSLQVSAQQAEVELRRLREENQRLRQELGSGPQEERALLRQLKEVTDRQRDELRAHNRDLQRRSQETEALQEQLQRLLLINSELRHKLAAVQTQLRAAQDRERERQIAQDGSSQLAKEQSLEPDAATSDDPVDTQKQPGNLPEAVQCGFSREELKQILQERNELKANVFLLKEELAYFQRELLTDHRVPGLLLEAMKVAVKKQRRKIKAKMLGTPEEAESSEDEDGSWLLLSNDKEDVPLVPESRIQNFFGLWYRGETEAPEAETSNPASSSLQKGEETPQQPHLQPVNSPPAPNS", "values": [
      {"measurement": "binding", "setting": "[6]", "result": "binds"},
      {"measurement": "binding", "setting": "[7]", "result": "binds"}
    ]},
    {"binder": "T7-RILP(N235A) (pEF-T7-RILP(N235A)) (protein, mouse, UniProt Q5ND29 1-369, looked up, not shown: small tags and cut ends) MEPRRAAPRLPSQASSSVGAGSAAELVYHLAGALGTELQGLARRFGPDAAAGLVPLVVRALELLEKAAVGPAPDSLQVSAQQAEVELRRLREENQRLRQELGSGPQEERALLRQLKEVTDRQRDELRAHNRDLQRRSQETEALQEQLQRLLLINSELRHKLAAVQTQLRAAQDRERERQIAQDGSSQLAKEQSLEPDAATSDDPVDTQKQPGNLPEAVQCGFSREELKQILQERAELKANVFLLKEELAYFQRELLTDHRVPGLLLEAMKVAVKKQRRKIKAKMLGTPEEAESSEDEDGSWLLLSNDKEDVPLVPESRIQNFFGLWYRGETEAPEAETSNPASSSLQKGEETPQQPHLQPVNSPPAPNS", "values": [
      {"measurement": "binding", "setting": "[8]", "result": "binds"},
      {"measurement": "binding", "setting": "[9]", "result": "binds"}
    ]}
  ]
}
